Test results taken from article PMC3053352.
Results are given in words; binding and its absence hold for the method and conditions named. Some binding calls cover weakened binding; strength is not graded here.

Protein sequences, listed by entry. Tags and fused reporters are not part of them.
UniProt O75475: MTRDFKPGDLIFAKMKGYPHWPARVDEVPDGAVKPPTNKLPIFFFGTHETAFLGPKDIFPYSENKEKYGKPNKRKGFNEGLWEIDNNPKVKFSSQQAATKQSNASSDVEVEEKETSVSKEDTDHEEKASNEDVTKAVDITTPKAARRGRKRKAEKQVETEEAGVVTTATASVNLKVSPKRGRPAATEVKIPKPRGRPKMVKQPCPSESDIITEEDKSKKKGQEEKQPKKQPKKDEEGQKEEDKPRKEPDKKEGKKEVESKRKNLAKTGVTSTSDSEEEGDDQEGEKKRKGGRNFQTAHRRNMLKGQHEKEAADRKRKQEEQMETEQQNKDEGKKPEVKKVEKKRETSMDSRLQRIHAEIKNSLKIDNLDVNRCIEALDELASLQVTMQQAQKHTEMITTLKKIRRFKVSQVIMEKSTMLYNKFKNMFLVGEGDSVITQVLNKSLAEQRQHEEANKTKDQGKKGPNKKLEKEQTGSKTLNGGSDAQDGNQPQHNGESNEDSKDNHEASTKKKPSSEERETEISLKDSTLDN

Molecular target: Ledgf/p75 (product of the PSIP1 gene) (UniProt O75475)
Test: two-hybrid; yeast two-hybrid screens; unpublished data; bait, prey and conditions not told

B1: WDR46 gene product (protein, UniProt O15213 1-610)
chain: METAPKPGKDVPPKKDKLQTKRKKPRRYWEEETVPTTAGASPGPPRNKKNRELRPQRPKNAYILKKSRISKKPQVPKKPREWKNPESQRGLSGTQDPFPGPAPVPVEVVQKFCRIDKSRKLPHSKAKTRSRLEVAEAEEEETSIKAARSELLLAEEPGFLEGEDGEDTAKICQADIVEAVDIASAAKHFDLNLRQFGPYRLNYSRTGRHLAFGGRRGHVAALDWVTKKLMCEINVMEAVRDIRFLHSEALLAVAQNRWLHIYDNQGIELHCIRRCDRVTRLEFLPFHFLLATASETGFLTYLDVSVGKIVAALNARAGRLDVMSQNPYNAVIHLGHSNGTVSLWSPAMKEPLAKILCHRGGVRAVAVDSTGTYMATSGLDHQLKIFDLRGTYQPLSTRTLPHGAGHLAFSQRGLLVAGMGDVVNIWAGQGKASPPSLEQPYLTHRLSGPVHGLQFCPFEDVLGVGHTGGITSMLVPGAGEPNFDGLESNPYRSRKQRQEWEVKALLEKVPAELICLDPRALAEVDVISLEQGKKEQIERLGYDPQAKAPFQPKPKQKGRSSTASLVKRKRKVMDEEHRDKVRQSLQQQHHKEAKAKPTGARPSALDRFVR
  binding: binds

B2: WDHD1 gene product (protein, UniProt O75717 1-1129)
chain: MPATRKPMRYGHTEGHTEVCFDDSGSFIVTCGSDGDVRIWEDLDDDDPKFINVGEKAYSCALKSGKLVTAVSNNTIQVHTFPEGVPDGILTRFTTNANHVVFNGDGTKIAAGSSDFLVKIVDVMDSSQQKTFRGHDAPVLSLSFDPKDIFLASASCDGSVRVWQISDQTCAISWPLLQKCNDVINAKSICRLAWQPKSGKLLAIPVEKSVKLYRRESWSHQFDLSDNFISQTLNIVTWSPCGQYLAAGSINGLIIVWNVETKDCMERVKHEKGYAICGLAWHPTCGRISYTDAEGNLGLLENVCDPSGKTSSSKVSSRVEKDYNDLFDGDDMSNAGDFLNDNAVEIPSFSKGIINDDEDDEDLMMASGRPRQRSHILEDDENSVDISMLKTGSSLLKEEEEDGQEGSIHNLPLVTSQRPFYDGPMPTPRQKPFQSGSTPLHLTHRFMVWNSIGIIRCYNDEQDNAIDVEFHDTSIHHATHLSNTLNYTIADLSHEAILLACESTDELASKLHCLHFSSWDSSKEWIIDLPQNEDIEAICLGQGWAAAATSALLLRLFTIGGVQKEVFSLAGPVVSMAGHGEQLFIVYHRGTGFDGDQCLGVQLLELGKKKKQILHGDPLPLTRKSYLAWIGFSAEGTPCYVDSEGIVRMLNRGLGNTWTPICNTREHCKGKSDHYWVVGIHENPQQLRCIPCKGSRFPPTLPRPAVAILSFKLPYCQIATEKGQMEEQFWRSVIFHNHLDYLAKNGYEYEESTKNQATKEQQELLMKMLALSCKLEREFRCVELADLMTQNAVNLAIKYASRSRKLILAQKLSELAVEKAAELTATQVEEEEEEEDFRKKLNAGYSNTATEWSQPRFRNQVEEDAEDSGEADDEEKPEIHKPGQNSFSKSTNSSDVSAKSGAVTFSSQGRVNPFKVSASSKEPAMSMNSARSTNILDNMGKSSKKSTALSRTTNNEKSPIIKPLIPKPKPKQASAASYFQKRNSQTNKTEEVKEENLKNVLSETPAICPPQNTENQRPKTGFQMWLEENRSNILSDNPDFSDEADIIKEGMIRFRVLSTEERKVWANKAKGETASEGTEAKKRKRVVDESDETENQEEKAKENLNLSKKQKPLDFSTNQKLSAFAFKQE
  binding: binds
